{"source": "patent US20060216336A1", "about": "“Transdermal therapeutic system for Parkinson's Disease” (priority 2002, published 2006)", "assay": "Multiple dose trial with rotating patch application sites in early-stage Parkinson's disease: rotigotine pharmacokinetics (Example 4)", "description": "Each day, a fresh patch was placed on a new skin site (abdomen, flank, upper arm, shoulder, thigh, hip) in a rotating order. The silicone transdermal patches were made in accordance with the teachings of U.S. Patent Application Publication No. US 2003/0026830 at paragraphs 38-42, U.S. Patent Application Publication No. US 2003/0027793 at paragraphs 37-41 and U.S. Pat. No. 6,884,434, columns 5-6, Example 2 and comprised the following layers and components:\nThe trial consisted of an Eligibility Assessment (EA), a 24-day Titration Phase (4.5 to 18.0 mg/day doses; incremental increases of 4.5mg/day every 6 days), a 6-day Maintenance Phase (18.0 mg/day dose), a 6-day De-escalation Phase (13.5/9.0/4.5mg/day decreasing dose every 2 days), and a Safety Follow-Up visit 2 days following the last dose.\nThe silicone transdermal patches were made in accordance with the teachings of U.S. Patent Application Publication No. US 2003/0026830 at paragraphs 3842 and U.S. Patent Application Publication No. US 2003/0027793 at paragraphs 3741 comprised the following layers and components as disclosed above\nThe 18.0 mg/day dose used 2×20 cm^2 patches. Initial doses were 4.5 mg/day with weekly increases of 4.5 mg/day to a maximum target dose of 18.0 mg/day.", "key": {"[1]": {"details": "Application Site = Flank, Day 27, 23.5 H"}}, "note": "This continues a long series; more values of the same kind are listed elsewhere."}
{"compound": "CCCN(CCc1cccs1)[C@H]1CCc2c(O)cccc2C1", "note": "[rotigotine, (6S)-6{propyl[2-(2-thienyl)ethyl]amino}-5,6,7,8-tetrahydro-1-naphthalenol]", "values": [{"measurement": "rotigotine plasma concentrations, Median", "setting": "Application Site = Abdomen, Day 27, 23.5 H", "result": 0.7200, "unit": "ng/mL"}, {"measurement": "rotigotine plasma concentrations, Geo. Mean", "setting": "[1]", "result": 0.7457, "unit": "ng/mL"}, {"measurement": "rotigotine plasma concentrations, Mean", "setting": "[1]", "result": 1.1897, "unit": "ng/mL"}, {"measurement": "rotigotine plasma concentrations, Median", "setting": "[1]", "result": 0.6040, "unit": "ng/mL"}, {"measurement": "rotigotine plasma concentrations, Geo. Mean", "setting": "Application Site = Flank, Day 30, 23.5 H", "result": 0.8877, "unit": "ng/mL"}, {"measurement": "rotigotine plasma concentration Geo. Mean", "setting": "Hip, Days 27 & 30 Combined, 23.5 H", "result": 0.8144, "unit": "ng/mL"}, {"measurement": "rotigotine plasma concentration Geo. Mean", "setting": "Shoulder, Day 27, 23.5 H", "result": 0.7901, "unit": "ng/mL"}, {"measurement": "rotigotine plasma concentration Geo. Mean", "setting": "Thigh, Day 27, 23.5 H", "result": 0.6187, "unit": "ng/mL"}, {"measurement": "rotigotine plasma concentration Geo. Mean", "setting": "Upper Arm, Day 27, 23.5 H", "result": 0.7423, "unit": "ng/mL"}]}
